Assay [1] addresses T1, Mod(mdg4)_T-mCherry (D. melanogaster) (UniProt Q86B87).
T1 sequence: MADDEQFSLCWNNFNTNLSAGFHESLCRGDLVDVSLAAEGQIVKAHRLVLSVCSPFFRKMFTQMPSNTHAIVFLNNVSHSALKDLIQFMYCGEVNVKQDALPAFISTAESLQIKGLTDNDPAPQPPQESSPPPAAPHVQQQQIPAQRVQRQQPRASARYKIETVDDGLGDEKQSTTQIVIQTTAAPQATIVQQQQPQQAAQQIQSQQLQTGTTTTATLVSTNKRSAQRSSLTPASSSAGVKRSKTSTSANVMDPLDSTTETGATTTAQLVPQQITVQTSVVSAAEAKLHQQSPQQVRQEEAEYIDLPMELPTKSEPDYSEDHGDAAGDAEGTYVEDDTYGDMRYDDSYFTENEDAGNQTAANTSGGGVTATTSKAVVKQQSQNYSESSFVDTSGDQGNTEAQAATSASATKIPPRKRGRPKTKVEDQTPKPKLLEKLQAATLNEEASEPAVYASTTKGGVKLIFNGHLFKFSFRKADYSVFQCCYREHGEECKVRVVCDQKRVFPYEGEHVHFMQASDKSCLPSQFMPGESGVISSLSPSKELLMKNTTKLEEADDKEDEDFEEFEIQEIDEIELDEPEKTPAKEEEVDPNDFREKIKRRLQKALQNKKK
In words: co-IP; transient co-expression of three or four proteins (SNM, UNO or a UNO fragment, MNM or a Mod(mdg4) variant, TEF) in Drosophila S2R+ cells; GFP-Trap, RFP-Trap or MYC-Trap agarose beads, 1 hour at 4°C; lysis buffer 20 mM Tris-HCl pH 7.5, 300 mM NaCl, 0.1% Nonidet P-40 Substitute, Benzonase; immunoblotting.

Assay [2] addresses T1, Mod(mdg4)_T-mCherry (D. melanogaster). In words: co-IP; transient co-expression of two proteins in Drosophila S2R+ cells; GFP-Trap, RFP-Trap or MYC-Trap agarose beads, 1 hour at 4°C; lysis buffer 20 mM Tris-HCl pH 7.5, 300 mM NaCl, 0.1% Nonidet P-40 Substitute, Benzonase; immunoblotting.

Results are given in words; binding and its absence hold for the method and conditions named. In cells and extracts the contact can be indirect. For part of these data: Binding calls can cover weak binding; strength is not graded here.

For the substance SNM-EGFP (D. melanogaster), in assay [1], the binding result was “no binding”.

As for MNM-EGFP (D. melanogaster), the binding entry in assay [2] was “binds”.

On to UNO-myc (D. melanogaster), for which the binding result in assay [1] was “no binding”.

The values are drawn from PMC9767379, “Homologous chromosomes are stably conjoined for Drosophila male meiosis I by SUM, a multimerized protein assembly with modules for DNA-binding and for separase-mediated dissociation co-opted from cohesin” (PLOS Genetics, 2022).
